Source: paper PMC7263609
No constants are given. Whether binding was seen depends on the method and setting.

Key:
[1] = target: HypBA2 CΔ1049 (residues 33–894), native (Bifidobacterium longum JCM 1217) (UniProt E8MGH9); assay: SEC; gel filtration on HiLoad 16/60 Superdex 200 pg in 20 mM Tris-HCl (pH 8.0), 250 mM NaCl, 2 mM CaCl2, 1 mL/min; compared with molecular mass markers; both purified
[2] = target: HypBA2 CΔ789 (residues 33–1154), SeMet-labeled (Bifidobacterium longum JCM 1217) (UniProt E8MGH9); assay: as above

binding [1]	binding [2]	Binder
no binding	–	HypBA2 CΔ1049 (residues 33–894), native (domain or fragment, UniProt E8MGH9 33-894) ADAPVIKNADVAYPSFKGSDDPMKTAANNTTYNPAVSYLQETFDNDVKNLAGIDTDHDFWIDKILTRTGAQPTGKGTNDKGAYSYEGSDGNNYLFTRGRAAYMYTHTPNQLGFVGDTAYWDQTSRSGFTVTVNADGSNQTLNEDASQRKQTPSYFTSLFQTGGKSLKIKEVKYITYNNVMVANLTVESTQDRDVTLTTASPFAAEGADGATELTGRVNVKNNLTTIYPRFSANNQDGSNWIVSGGKLTSTLSLKANEPQTVKIQLGLIANELPDSTKEYEARYTGDLKDAAASYKDSVTTYNKWWVDNAPYVDTPEDNIDKTVVYRWWLSRFNMLDANMPGNTFQYPTSIEGVLGYNNQIVLTSGMFMMDTKWFRNPEYSYGTWLSAGDTAKKSKAGYYYYHDNPGDPANWNHSYTQYITRAGWDSYKVHGGPSTVAEELADQGAEDVQGLLASKSEPDNNDNQNNNDNSLIDWSWWSMTGNDADAVSFSEPGRSGQRMDRADGSANMWANANAAAQAYKAAGDTANAEKMQAIADKIQKEVTTELWDKSDNLLKHKWLNDGAFAKYKEINNYYPYSEGLMPTGNEDYNKALRLFEDSNEFPIFPFFTANQADKAALNFPGSNNFSIINAQPLLQVYSAGIRNYDAAKNGYITNEQFKKLLYWVAFAHYQGGDNNYPDQNEFWNEDNNNVGDVNGDGVINNLDKNLDAAQNGGKITYRSWIHHTQLGTTNWTMVEDVAGMVPREDNKIELNPIEIPGWNYFTVNNLRYHDQDVSIVWDKDGSHYGGPAGYSLYVGGKLAFTSDKLAHLIYDPAAGTVEVKDDSSAQVTVGAEAVKNVKAANQVTFNADQRVTDLFAKSGTNV
–	no binding	HypBA2 CΔ789 (residues 33–1154), SeMet-labeled (domain or fragment, UniProt E8MGH9 33-1154, selenomethionine (SeMet-labeled)) ADAPVIKNADVAYPSFKGSDDPMKTAANNTTYNPAVSYLQETFDNDVKNLAGIDTDHDFWIDKILTRTGAQPTGKGTNDKGAYSYEGSDGNNYLFTRGRAAYMYTHTPNQLGFVGDTAYWDQTSRSGFTVTVNADGSNQTLNEDASQRKQTPSYFTSLFQTGGKSLKIKEVKYITYNNVMVANLTVESTQDRDVTLTTASPFAAEGADGATELTGRVNVKNNLTTIYPRFSANNQDGSNWIVSGGKLTSTLSLKANEPQTVKIQLGLIANELPDSTKEYEARYTGDLKDAAASYKDSVTTYNKWWVDNAPYVDTPEDNIDKTVVYRWWLSRFNMLDANMPGNTFQYPTSIEGVLGYNNQIVLTSGMFMMDTKWFRNPEYSYGTWLSAGDTAKKSKAGYYYYHDNPGDPANWNHSYTQYITRAGWDSYKVHGGPSTVAEELADQGAEDVQGLLASKSEPDNNDNQNNNDNSLIDWSWWSMTGNDADAVSFSEPGRSGQRMDRADGSANMWANANAAAQAYKAAGDTANAEKMQAIADKIQKEVTTELWDKSDNLLKHKWLNDGAFAKYKEINNYYPYSEGLMPTGNEDYNKALRLFEDSNEFPIFPFFTANQADKAALNFPGSNNFSIINAQPLLQVYSAGIRNYDAAKNGYITNEQFKKLLYWVAFAHYQGGDNNYPDQNEFWNEDNNNVGDVNGDGVINNLDKNLDAAQNGGKITYRSWIHHTQLGTTNWTMVEDVAGMVPREDNKIELNPIEIPGWNYFTVNNLRYHDQDVSIVWDKDGSHYGGPAGYSLYVGGKLAFTSDKLAHLIYDPAAGTVEVKDDSSAQVTVGAEAVKNVKAANQVTFNADQRVTDLFAKSGTNVDSASKSTTNVAKDADVTGTTYAEKDTNYPAKNAVDGKTVMESFWGTKGSENKTDTLNIKFKDGKQKIDDIRLYFYQSSSSQTISGYAEPANYKLEYQKDDGTWAPIADQVRTPNYAGANYNRIQFTPVETTTIRVTFTPQAGMAVGVKEIEAYNTGIKADGTSENQTPQVDAYVSSSTSSGAKLVGTVKDDGLPAEGDVTTTWSQVSGPEGGTAKFVDASAASTTVTFNKEGDYVLKLTASDGEKEGSKEITVHGIPSDG
